Data reported in the supplement of paper PMC10849652.
This is one part of the list.

Amino acid sequences for entries named in this document (tags omitted). A change or cut given only in a name is not applied to a line headed by its entry.
UniProt P02810: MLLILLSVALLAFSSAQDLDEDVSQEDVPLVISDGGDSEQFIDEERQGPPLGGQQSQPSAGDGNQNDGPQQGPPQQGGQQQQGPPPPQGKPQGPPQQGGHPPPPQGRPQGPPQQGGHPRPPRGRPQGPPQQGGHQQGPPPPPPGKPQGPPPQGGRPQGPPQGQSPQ
UniProt Q13362, whole entry, looked up: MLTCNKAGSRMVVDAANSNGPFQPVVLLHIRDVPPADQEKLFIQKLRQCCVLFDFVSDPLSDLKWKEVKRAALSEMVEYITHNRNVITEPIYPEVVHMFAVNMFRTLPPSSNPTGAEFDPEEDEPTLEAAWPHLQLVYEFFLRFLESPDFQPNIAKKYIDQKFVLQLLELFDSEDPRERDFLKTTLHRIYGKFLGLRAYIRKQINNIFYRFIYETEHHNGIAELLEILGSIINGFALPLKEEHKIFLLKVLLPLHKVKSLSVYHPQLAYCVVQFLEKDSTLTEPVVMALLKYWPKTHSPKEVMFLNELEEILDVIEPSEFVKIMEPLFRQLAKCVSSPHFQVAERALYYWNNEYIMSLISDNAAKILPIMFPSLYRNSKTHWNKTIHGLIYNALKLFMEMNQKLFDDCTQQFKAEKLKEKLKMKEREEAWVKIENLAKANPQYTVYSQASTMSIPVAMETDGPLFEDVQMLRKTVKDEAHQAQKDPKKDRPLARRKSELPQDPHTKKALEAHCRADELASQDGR
UniProt Q96I34: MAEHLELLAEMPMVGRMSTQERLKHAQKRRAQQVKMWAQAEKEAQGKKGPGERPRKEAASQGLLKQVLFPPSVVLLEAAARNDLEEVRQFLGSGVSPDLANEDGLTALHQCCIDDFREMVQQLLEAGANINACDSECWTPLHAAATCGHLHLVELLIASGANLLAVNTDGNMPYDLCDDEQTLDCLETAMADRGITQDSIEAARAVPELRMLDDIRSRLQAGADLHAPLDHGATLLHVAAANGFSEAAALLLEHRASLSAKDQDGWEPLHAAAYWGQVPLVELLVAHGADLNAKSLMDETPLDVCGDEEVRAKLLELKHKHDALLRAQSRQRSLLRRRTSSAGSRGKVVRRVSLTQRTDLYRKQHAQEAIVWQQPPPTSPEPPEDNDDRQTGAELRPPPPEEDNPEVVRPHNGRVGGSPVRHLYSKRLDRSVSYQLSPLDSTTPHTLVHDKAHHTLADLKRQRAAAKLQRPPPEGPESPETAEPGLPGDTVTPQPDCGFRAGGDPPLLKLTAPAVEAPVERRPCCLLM
UniProt Q969Q6: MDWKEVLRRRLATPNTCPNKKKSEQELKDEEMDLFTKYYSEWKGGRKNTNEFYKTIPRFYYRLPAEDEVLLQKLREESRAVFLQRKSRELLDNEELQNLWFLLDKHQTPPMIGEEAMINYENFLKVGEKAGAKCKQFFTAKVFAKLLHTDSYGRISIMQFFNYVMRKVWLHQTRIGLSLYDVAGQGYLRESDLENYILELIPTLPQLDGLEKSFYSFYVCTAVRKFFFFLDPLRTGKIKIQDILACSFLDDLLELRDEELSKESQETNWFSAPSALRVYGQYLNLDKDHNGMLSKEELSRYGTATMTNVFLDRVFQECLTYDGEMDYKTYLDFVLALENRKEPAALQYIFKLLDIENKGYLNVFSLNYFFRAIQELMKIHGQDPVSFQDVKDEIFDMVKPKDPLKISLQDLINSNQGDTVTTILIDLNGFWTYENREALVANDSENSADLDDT
UniProt Q13029: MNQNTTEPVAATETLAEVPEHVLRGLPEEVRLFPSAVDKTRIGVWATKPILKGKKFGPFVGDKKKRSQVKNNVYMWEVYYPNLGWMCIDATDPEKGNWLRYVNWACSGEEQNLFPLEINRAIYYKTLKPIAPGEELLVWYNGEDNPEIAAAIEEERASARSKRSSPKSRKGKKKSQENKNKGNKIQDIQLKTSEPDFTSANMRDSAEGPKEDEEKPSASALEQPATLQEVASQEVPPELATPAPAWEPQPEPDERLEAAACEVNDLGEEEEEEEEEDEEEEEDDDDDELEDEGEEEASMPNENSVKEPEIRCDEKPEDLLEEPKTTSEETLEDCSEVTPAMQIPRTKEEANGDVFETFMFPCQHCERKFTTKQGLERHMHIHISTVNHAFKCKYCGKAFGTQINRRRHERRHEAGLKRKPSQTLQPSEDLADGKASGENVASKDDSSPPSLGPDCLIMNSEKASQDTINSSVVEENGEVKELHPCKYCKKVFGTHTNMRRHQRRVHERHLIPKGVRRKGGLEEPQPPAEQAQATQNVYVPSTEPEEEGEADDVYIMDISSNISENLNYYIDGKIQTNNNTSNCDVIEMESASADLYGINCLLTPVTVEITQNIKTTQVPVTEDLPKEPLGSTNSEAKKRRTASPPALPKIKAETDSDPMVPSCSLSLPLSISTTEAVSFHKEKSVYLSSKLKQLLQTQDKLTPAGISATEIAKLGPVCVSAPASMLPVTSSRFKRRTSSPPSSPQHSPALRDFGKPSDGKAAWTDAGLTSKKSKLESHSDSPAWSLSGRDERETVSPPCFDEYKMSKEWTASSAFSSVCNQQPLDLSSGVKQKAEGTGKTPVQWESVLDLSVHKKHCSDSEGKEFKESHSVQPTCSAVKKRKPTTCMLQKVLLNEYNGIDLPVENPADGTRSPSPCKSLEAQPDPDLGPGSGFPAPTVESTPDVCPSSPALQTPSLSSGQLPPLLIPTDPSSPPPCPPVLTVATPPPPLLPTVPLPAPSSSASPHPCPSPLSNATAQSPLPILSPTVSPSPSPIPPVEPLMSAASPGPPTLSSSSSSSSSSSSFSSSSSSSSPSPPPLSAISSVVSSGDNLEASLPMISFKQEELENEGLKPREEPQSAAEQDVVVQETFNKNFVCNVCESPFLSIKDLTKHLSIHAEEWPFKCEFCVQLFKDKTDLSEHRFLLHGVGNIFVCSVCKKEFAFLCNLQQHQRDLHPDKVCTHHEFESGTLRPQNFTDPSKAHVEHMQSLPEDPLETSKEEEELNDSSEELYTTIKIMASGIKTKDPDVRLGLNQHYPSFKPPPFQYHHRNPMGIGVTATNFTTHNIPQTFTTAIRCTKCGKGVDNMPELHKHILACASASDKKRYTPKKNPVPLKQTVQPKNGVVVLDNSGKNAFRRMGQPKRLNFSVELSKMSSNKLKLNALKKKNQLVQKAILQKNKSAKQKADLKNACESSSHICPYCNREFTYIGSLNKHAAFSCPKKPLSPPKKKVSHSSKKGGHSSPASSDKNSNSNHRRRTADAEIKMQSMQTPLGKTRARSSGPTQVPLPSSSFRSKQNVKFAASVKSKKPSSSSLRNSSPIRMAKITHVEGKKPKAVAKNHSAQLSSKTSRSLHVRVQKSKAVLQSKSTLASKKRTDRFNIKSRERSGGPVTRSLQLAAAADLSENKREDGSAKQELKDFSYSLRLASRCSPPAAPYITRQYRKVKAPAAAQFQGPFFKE
UniProt Q86XN7: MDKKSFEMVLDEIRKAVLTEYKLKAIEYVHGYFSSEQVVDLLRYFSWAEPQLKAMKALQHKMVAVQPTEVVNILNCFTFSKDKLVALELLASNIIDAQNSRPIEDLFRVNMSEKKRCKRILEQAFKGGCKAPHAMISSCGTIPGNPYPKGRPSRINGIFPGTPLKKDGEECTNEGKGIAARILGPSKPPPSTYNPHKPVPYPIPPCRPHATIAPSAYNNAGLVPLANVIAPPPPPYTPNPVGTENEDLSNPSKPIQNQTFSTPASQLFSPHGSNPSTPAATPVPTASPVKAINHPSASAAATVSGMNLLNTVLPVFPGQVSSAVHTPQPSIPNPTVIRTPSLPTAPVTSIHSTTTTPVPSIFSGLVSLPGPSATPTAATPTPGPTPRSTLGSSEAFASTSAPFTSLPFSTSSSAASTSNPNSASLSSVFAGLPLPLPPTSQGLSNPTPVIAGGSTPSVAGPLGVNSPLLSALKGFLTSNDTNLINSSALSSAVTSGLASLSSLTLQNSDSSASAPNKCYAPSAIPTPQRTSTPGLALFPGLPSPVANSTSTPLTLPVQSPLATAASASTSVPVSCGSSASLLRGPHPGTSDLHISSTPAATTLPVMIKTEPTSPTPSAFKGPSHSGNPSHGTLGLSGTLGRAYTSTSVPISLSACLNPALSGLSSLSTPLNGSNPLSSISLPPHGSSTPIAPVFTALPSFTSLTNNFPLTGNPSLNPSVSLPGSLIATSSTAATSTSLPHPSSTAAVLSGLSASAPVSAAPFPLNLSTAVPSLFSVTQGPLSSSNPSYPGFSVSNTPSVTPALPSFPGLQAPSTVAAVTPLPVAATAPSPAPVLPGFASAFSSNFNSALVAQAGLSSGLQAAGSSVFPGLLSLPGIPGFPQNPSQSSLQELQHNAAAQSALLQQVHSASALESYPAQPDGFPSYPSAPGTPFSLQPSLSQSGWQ
UniProt O75688: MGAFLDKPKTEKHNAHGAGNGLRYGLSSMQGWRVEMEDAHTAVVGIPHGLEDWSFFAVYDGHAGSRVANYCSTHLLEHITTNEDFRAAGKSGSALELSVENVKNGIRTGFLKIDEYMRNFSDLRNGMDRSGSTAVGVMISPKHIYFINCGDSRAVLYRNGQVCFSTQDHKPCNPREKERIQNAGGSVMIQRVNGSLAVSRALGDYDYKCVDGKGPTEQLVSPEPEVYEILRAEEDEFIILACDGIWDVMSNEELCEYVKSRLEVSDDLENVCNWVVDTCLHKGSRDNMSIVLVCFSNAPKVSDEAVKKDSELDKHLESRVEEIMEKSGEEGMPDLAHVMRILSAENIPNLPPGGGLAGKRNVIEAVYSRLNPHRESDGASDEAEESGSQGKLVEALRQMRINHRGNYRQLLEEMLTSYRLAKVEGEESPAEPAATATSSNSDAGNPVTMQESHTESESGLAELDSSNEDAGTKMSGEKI
UniProt O60437: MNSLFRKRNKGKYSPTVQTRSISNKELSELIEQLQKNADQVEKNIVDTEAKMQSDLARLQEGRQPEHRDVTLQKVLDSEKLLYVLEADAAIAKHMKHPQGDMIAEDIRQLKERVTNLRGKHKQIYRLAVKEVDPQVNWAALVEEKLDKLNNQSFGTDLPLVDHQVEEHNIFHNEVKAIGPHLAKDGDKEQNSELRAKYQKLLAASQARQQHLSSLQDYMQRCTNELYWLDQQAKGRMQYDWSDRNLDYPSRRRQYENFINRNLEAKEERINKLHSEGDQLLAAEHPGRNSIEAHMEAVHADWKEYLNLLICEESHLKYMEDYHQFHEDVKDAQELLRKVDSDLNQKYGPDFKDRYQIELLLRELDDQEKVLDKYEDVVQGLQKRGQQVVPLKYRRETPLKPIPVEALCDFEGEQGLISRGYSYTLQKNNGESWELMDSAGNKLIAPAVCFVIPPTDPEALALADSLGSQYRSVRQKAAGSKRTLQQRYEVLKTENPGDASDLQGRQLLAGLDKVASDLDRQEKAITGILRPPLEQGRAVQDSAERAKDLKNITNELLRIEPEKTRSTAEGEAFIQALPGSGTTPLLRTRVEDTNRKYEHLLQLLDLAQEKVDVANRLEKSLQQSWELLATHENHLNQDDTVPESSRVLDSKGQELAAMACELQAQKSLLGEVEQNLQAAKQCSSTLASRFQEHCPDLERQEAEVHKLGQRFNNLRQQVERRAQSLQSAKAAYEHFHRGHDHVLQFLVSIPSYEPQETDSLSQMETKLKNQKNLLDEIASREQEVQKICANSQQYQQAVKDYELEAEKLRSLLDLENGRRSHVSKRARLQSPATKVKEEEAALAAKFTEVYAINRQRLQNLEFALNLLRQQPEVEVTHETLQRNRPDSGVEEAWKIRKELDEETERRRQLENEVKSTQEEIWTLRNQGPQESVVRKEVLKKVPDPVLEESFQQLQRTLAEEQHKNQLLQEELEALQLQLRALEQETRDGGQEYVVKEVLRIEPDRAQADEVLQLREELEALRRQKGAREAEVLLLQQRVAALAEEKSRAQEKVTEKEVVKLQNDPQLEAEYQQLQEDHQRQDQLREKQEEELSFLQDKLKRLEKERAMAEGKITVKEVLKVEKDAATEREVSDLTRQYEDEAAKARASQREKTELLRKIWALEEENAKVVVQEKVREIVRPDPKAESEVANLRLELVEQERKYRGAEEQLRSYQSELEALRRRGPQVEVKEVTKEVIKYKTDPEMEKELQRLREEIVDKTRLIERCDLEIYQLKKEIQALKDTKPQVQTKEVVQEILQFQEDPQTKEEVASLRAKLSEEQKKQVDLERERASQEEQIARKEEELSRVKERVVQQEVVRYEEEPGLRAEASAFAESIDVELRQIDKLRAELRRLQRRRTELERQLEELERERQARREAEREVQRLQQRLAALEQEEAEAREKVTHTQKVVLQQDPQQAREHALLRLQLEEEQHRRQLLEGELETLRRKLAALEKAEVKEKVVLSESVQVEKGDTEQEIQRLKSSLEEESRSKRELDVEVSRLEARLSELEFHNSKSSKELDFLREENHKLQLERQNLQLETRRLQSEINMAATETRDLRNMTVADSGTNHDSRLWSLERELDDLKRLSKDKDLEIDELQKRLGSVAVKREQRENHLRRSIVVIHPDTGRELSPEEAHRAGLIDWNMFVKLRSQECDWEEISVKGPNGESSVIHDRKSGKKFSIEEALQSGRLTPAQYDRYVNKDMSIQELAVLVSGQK

Compound: Cc1cc(Nc2cc(CN3CCOCC3)c3nc(C)c(Cc4ccc(Cl)cc4F)n3n2)n[nH]1 [gandotinib]
Assay: log2 fold change, soluble protein after heating vs DMSO (PISA); higher = thermal stabilisation; K562 lysate, 10 uM; active = over 0.2 and 3.5 SD of the protein, either way, in both replicates (recomputed)
Summary of the method: (§1)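 K562 pellets were dounce-homogenised in PBS pH 7.4 with 1 mM MgCl2, and the crude extract at 1 mg/mL protein was treated with 10 μM compound for 30 min. Aliquots were heated for 3 min across 48°C-58°C, pooled, and brought to 0.5% NP-40 at 4°C; soluble protein was the supernatant after 21,000xg for 90 min. Soluble protein was quantified by TMTpro 16plex LC-MS/MS with channel sums equalised, and reported as log2 fold change in thermal stability against DMSO controls, with values from duplicates.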

Target	log2 fold change
PRH1 (UniProt P02810)	inactive: -0.899
PPP2R5C isoform 2 (UniProt Q13362)	inactive: 0.026
PPP6R3 isoform 2 (UniProt Q5H9R7)	inactive: 0.022
PROSER3 (UniProt Q2NL68)	inactive: 0.039
PPP1R16A (UniProt Q96I34)	inactive: 0.024
PPP1R15B (UniProt Q5SWA1)	inactive: -0.268
PPP2R3C (UniProt Q969Q6)	inactive: -0.097
PRDM2 (UniProt Q13029)	inactive: 0.029
PPP1R12C isoform 3 (UniProt Q9BZL4)	inactive: -0.074
PREP (UniProt H0Y5Y0)	inactive: 0.113
PRMT2 (UniProt P55345)	inactive: -0.087
PPP6R3 isoform 6 (UniProt Q5H9R7)	inactive: 0.267
PROSER1 (UniProt Q86XN7)	inactive: -0.372
PPP1R3E (UniProt Q9H7J1)	inactive: 0.143

Compound: Cc1cc(Nc2cc(N3CCN(C)CC3)nc(Sc3ccc(NC(=O)C4CC4)cc3)n2)n[nH]1 [tozasertib]
Assay: as above
Summary of the method: as §1

Target	log2 fold change
PPME1 (UniProt Q9Y570)	inactive: 0.072
PRDM10 isoform 6 (UniProt Q9NQV6)	inactive: 0.01
PPM1B isoform 2 (UniProt O75688)	inactive: -0.063
PRG2 (UniProt P13727)	inactive: -0.107
PPP1R16A (UniProt Q96I34)	inactive: -0.013
PPP2R3C (UniProt Q969Q6)	inactive: 0.036
PRIMPOL (UniProt Q96LW4)	inactive: -0.031
PPIP5K2 (UniProt H0Y9S9)	inactive: 0.029
PRPF40A isoform 3 (UniProt O75400)	inactive: 0.042
PPL (UniProt O60437)	inactive: -0.064
PRMT2 (UniProt P55345)	inactive: -0.004

Compound: Cc1ccc(-n2nc(C(C)(C)C)cc2NC(=O)Nc2ccc(OCCN3CCOCC3)c3ccccc23)cc1 [doramapimod]
Assay: as above
Summary of the method: as §1

Target	log2 fold change
PRPF40B (UniProt Q6NWY9)	inactive: 0
PPP2R5C isoform 2 (UniProt Q13362)	inactive: -0.043
PROSER3 (UniProt Q2NL68)	inactive: -0.173
PRELID1 (UniProt Q9Y255)	inactive: -0.04
PRG2 (UniProt P13727)	inactive: -0.041
PPP1R12C isoform 3 (UniProt Q9BZL4)	inactive: 0.064
PRIMPOL (UniProt Q96LW4)	inactive: 0.014
PPL (UniProt O60437)	inactive: 0.058
PROSER3, A0A2R8Y8D9	inactive: -0.079

Compound: Cc1ccc(NC(=O)c2ccc(CN3CC[C@H](N(C)C)C3)c(C(F)(F)F)c2)cc1Nc1nccc(-c2cncnc2)n1 [bafetinib]
Assay: as above
Summary of the method: as §1

Target	log2 fold change
PRICKLE3 (UniProt O43900)	inactive: 0.294
PPP2R5C isoform 2 (UniProt Q13362)	inactive: 0.103
PPME1 (UniProt Q9Y570)	inactive: -0.081
PRDM10 isoform 6 (UniProt Q9NQV6)	inactive: -0.123
PRELID1 (UniProt Q9Y255)	inactive: -0.134
PPM1B isoform 2 (UniProt O75688)	inactive: -0.025
PPP1R16A (UniProt Q96I34)	inactive: 0.115
PPP2R3C (UniProt Q969Q6)	inactive: 0.022
PRDM2 (UniProt Q13029)	inactive: -0.106
PPP1R12C isoform 3 (UniProt Q9BZL4)	inactive: -0.036
PRIMPOL (UniProt Q96LW4)	inactive: -0.225
PPIP5K2 (UniProt H0Y9S9)	inactive: -0.15
PPL (UniProt O60437)	inactive: 0.027
PRMT2 (UniProt P55345)	inactive: 0.079
PROSER1 (UniProt Q86XN7)	inactive: 0.013

Compound: Cc1cccc(CC(=O)N2CCc3c2ccc(-c2cn(C)c4ncnc(N)c24)c3F)n1
Assay: as above
Summary of the method: as §1

Target	log2 fold change
PRH1 (UniProt P02810)	inactive: 1.41
PPP2R5C isoform 2 (UniProt Q13362)	inactive: -0.005
PPP6R3 isoform 2 (UniProt Q5H9R7)	inactive: -0.02
PROSER3 (UniProt Q2NL68)	inactive: -0.139
PPP1R16A (UniProt Q96I34)	inactive: 0.015
PPP1R15B (UniProt Q5SWA1)	inactive: 0.249
PPP2R3C (UniProt Q969Q6)	inactive: 0.023
PRDM2 (UniProt Q13029)	inactive: 0.117
PPP1R12C isoform 3 (UniProt Q9BZL4)	inactive: -0.112
PREP (UniProt H0Y5Y0)	inactive: -0.153
PRMT2 (UniProt P55345)	inactive: 0.039
PPP6R3 isoform 6 (UniProt Q5H9R7)	inactive: 0.016
PROSER1 (UniProt Q86XN7)	inactive: -0.026
PPP1R3E (UniProt Q9H7J1)	inactive: 0.24

Compound: Cc1cn(-c2cc(NC(=O)c3ccc(C)c(Nc4nccc(-c5cccnc5)n4)c3)cc(C(F)(F)F)c2)cn1 [nilotinib]
Assay: as above
Summary of the method: as §1

Target	log2 fold change
PPP2R5C isoform 2 (UniProt Q13362)	inactive: -0.028
PPP6R3 isoform 2 (UniProt Q5H9R7)	inactive: -0.222
PPT2, A0A140T9Y1	inactive: -0.054
PRELID1 (UniProt Q9Y255)	inactive: -0.012
PPM1B isoform 2 (UniProt O75688)	inactive: 0.039
PPP2R3C (UniProt Q969Q6)	inactive: -0.139
PPP2CA (UniProt E7ESG8)	inactive: 0.025
PRIMPOL (UniProt Q96LW4)	inactive: 0.112
PPL (UniProt O60437)	inactive: 0.015
PROSER1 (UniProt Q86XN7)	inactive: 0.109
